PubChem BioAssay AID1259405, NCATS – 2018

- Purpose: 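Knock-downs that lift recombinant protein yield in hamster ovary cells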 (primary screen)
- Cell system: Chinese hamster CHO-K1 ovary cells with stable secreted eGFP expression
- Knock-down reagent: single siRNA against mouse genes, 0.8 pmol siRNA per well (2 µl of 400 nM stock)
- Time to read-out: 3 days
- Detection: 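Percent of the per-plate non-targeting control median for intracellular GFP per well by laser scanning cytometry and for cell viability by ATP luminescence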
- Scale: GFP, % of control: higher = more GFP per well, higher productivity; viability (ATP), % of control: higher = more viable cells (more ATP)
- Call rule: 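Called active when intracellular GFP, relative to negative control, is at or above 120%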
This is a random part of about 50,000 reagents. About 4,000 of all reagents (8%) were called active. 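Mouse siRNA library applied to hamster cells; one well for each siRNA.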 The numbers tell different reagents against one gene apart.

{"Gene": "Pnpo", "siRNA no.": 1, "GFP, % of control": 73.6, "viability (ATP), % of control": 51.2, "Call": "inactive"}
{"Gene": "Pnpo", "siRNA no.": 2, "GFP, % of control": 85.7, "viability (ATP), % of control": 58.1, "Call": "inactive"}
{"Gene": "Pnpo", "siRNA no.": 3, "GFP, % of control": 41.6, "viability (ATP), % of control": 78.2, "Call": "inactive"}
{"Gene": "F2rl3", "siRNA no.": 1, "GFP, % of control": 77.3, "viability (ATP), % of control": 82.9, "Call": "inactive"}
{"Gene": "F2rl3", "siRNA no.": 2, "GFP, % of control": 82.3, "viability (ATP), % of control": 84.4, "Call": "inactive"}
{"Gene": "F2rl3", "siRNA no.": 3, "GFP, % of control": 80.9, "viability (ATP), % of control": 83.5, "Call": "inactive"}
{"Gene": "Syt7", "siRNA no.": 1, "GFP, % of control": 142, "viability (ATP), % of control": 151, "Call": "active"}
{"Gene": "Syt7", "siRNA no.": 2, "GFP, % of control": 74, "viability (ATP), % of control": 101, "Call": "inactive"}
{"Gene": "Fyb1", "siRNA no.": 1, "GFP, % of control": 73.7, "viability (ATP), % of control": 74.8, "Call": "inactive"}
{"Gene": "Fyb1", "siRNA no.": 2, "GFP, % of control": 96.2, "viability (ATP), % of control": 85.9, "Call": "inactive"}
{"Gene": "Fyb1", "siRNA no.": 3, "GFP, % of control": 65, "viability (ATP), % of control": 52.5, "Call": "inactive"}
{"Gene": "Mapkbp1", "siRNA no.": 1, "GFP, % of control": 68.9, "viability (ATP), % of control": 34.4, "Call": "inactive"}
{"Gene": "Mapkbp1", "siRNA no.": 2, "GFP, % of control": 42, "viability (ATP), % of control": 77.4, "Call": "inactive"}
{"Gene": "Mapkbp1", "siRNA no.": 3, "GFP, % of control": 68.8, "viability (ATP), % of control": 52.1, "Call": "inactive"}
{"Gene": "Wdr83os", "siRNA no.": 1, "GFP, % of control": 71.1, "viability (ATP), % of control": 78.4, "Call": "inactive"}
{"Gene": "Wdr83os", "siRNA no.": 2, "GFP, % of control": 71.3, "viability (ATP), % of control": 91.3, "Call": "inactive"}
{"Gene": "Wdr83os", "siRNA no.": 3, "GFP, % of control": 88.1, "viability (ATP), % of control": 109, "Call": "inactive"}
